Experimental findings from publication PMC8096138 are described below.

This test deals with SARS-CoV-2 ORF3a, expressed in human cells (SARS-CoV-2), P0DTC3. The test is described as follows: affinity purification with mass spectrometry. The note with it: remark: other sources report otherwise.

Results are given in words; binding and its absence hold for the method and conditions named. In cells and extracts the contact can be indirect. A yes stands for co-enrichment or nearness to the bait. Other partners may have been found.

B1: VPS39, endogenous in HeLa cells, Q96JC1 1-886 (protein)
chain: MHDAFEPVPILEKLPLQIDCLAAWEEWLLVGTKQGHLLLYRIRKDVVPADVASPESGSCNRFEVTLEKSNKNFSKKIQQIHVVSQFKILVSLLENNIYVHDLLTFQQITTVSKAKGASLFTCDLQHTETGEEVLRMCVAVKKKLQLYFWKDREFHELQGDFSVPDVPKSMAWCENSICVGFKRDYYLIRVDGKGSIKELFPTGKQLEPLVAPLADGKVAVGQDDLTVVLNEEGICTQKCALNWTDIPVAMEHQPPYIIAVLPRYVEIRTFEPRLLVQSIELQRPRFITSGGSNIIYVASNHFVWRLIPVPMATQIQQLLQDKQFELALQLAEMKDDSDSEKQQQIHHIKNLYAFNLFCQKRFDESMQVFAKLGTDPTHVMGLYPDLLPTDYRKQLQYPNPLPVLSGAELEKAHLALIDYLTQKRSQLVKKLNDSDHQSSTSPLMEGTPTIKSKKKLLQIIDTTLLKCYLHTNVALVAPLLRLENNHCHIEESEHVLKKAHKYSELIILYEKKGLHEKALQVLVDQSKKANSPLKGHERTVQYLQHLGTENLHLIFSYSVWVLRDFPEDGLKIFTEDLPEVESLPRDRVLGFLIENFKGLAIPYLEHIIHVWEETGSRFHNCLIQLYCEKVQGLMKEYLLSFPAGKTPVPAGEEEGELGEYRQKLLMFLEISSYYDPGRLICDFPFDGLLEERALLLGRMGKHEQALFIYVHILKDTRMAEEYCHKHYDRNKDGNKDVYLSLLRMYLSPPSIHCLGPIKLELLEPKANLQAALQVLELHHSKLDTTKALNLLPANTQINDIRIFLEKVLEENAQKKRFNQVLKNLLHAEFLRVQEERILHQQVKCIITEEKVCMVCKKKIGNSAFARYPNGVVVHYFCSKEVNPADT
Take B1: the binding result was “binds”.
